Results reported in article PMC9883236.
No constants are given. Whether binding was seen depends on the method and setting. In cells and extracts the contact can be indirect. Some binding calls cover weakened binding; strength is not graded here. For some of these results: Tags and fused reporters may be left off the sequences shown.

Amino acid sequences for entries named in this document (tags omitted).
UniProt Q86WV6: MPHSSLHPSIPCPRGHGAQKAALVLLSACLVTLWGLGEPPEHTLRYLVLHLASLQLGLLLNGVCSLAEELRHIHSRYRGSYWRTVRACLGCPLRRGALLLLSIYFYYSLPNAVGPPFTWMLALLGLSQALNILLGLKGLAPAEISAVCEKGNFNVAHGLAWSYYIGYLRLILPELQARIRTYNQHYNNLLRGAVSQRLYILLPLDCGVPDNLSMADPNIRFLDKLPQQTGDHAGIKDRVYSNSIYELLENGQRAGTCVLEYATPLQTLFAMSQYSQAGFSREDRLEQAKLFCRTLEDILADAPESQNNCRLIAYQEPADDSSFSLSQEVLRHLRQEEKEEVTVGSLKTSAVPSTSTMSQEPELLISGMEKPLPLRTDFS

T1: STING, endogenous in mouse macrophages (mouse (endogenous in peritoneal macrophages and BMDMs)) (UniProt Q3TBT3)
T1 sequence: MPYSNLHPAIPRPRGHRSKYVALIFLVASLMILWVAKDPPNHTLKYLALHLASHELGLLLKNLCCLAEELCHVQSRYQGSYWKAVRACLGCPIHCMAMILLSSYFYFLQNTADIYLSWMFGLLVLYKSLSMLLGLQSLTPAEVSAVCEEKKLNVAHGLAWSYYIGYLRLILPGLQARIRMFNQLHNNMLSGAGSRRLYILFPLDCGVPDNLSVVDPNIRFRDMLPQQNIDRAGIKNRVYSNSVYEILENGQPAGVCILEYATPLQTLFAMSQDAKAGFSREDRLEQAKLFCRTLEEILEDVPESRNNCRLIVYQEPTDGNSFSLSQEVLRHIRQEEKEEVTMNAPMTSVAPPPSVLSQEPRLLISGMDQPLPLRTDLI

B1: TRIM29-Flag (tripartite motif protein 29) (enzyme, UniProt Q14134 1-588)
chain: MEAADASRSNGSSPEARDARSPSGPSGSLENGTKADGKDAKTTNGHGGEAAEGKSLGSALKPGEGRSALFAGNEWRRPIIQFVESGDDKNSNYFSMDSMEGKRSPYAGLQLGAAKKPPVTFAEKGELRKSIFSESRKPTVSIMEPGETRRNSYPRADTGLFSRSKSGSEEVLCDSCIGNKQKAVKSCLVCQASFCELHLKPHLEGAAFRDHQLLEPIRDFEARKCPVHGKTMELFCQTDQTCICYLCMFQEHKNHSTVTVEEAKAEKETELSLQKEQLQLKIIEIEDEAEKWQKEKDRIKSFTTNEKAILEQNFRDLVRDLEKQKEEVRAALEQREQDAVDQVKVIMDALDERAKVLHEDKQTREQLHSISDSVLFLQEFGALMSNYSLPPPLPTYHVLLEGEGLGQSLGNFKDDLLNVCMRHVEKMCKADLSRNFIERNHMENGGDHRYVNNYTNSFGGEWSAPDTMKRYSMYLTPKGGVRTSYQPSSPGRFTKETTQKNFNNLYGTKGNYTSRVWEYSSSIQNSDNDLPVVQGSSSFSLKGYPSLMRSQSPKAQPQTWKSGKQTMLSHYRPFYVNKGNGIGSNEAP
B2: TRIM30a (tripartite motif protein 30a) (enzyme, UniProt P15533 1-496)
chain: MASSVLEMIKEEVTCPICLELLKEPVSADCNHSFCRACITLNYESNRNTDGKGNCPVCRVPYPFGNLRPNLHVANIVERLKGFKSIPEEEQKVNICAQHGEKLRLFCRKDMMVICWLCERSQEHRGHQTALIEEVDQEYKEKLQGALWKLMKKAKICDEWQDDLQLQRVDWENQIQINVENVQRQFKGLRDLLDSKENEELQKLKKEKKEVMEKLEESENELEDQTELVRDLISDVEHHLELSTLEMLQGANCVLRRSQSLSLQQPQTVPQKRKRTFQAPDLKGMLQVYQGLMDIQQYWVHMTLHARNNAVIAINKEKRQIQYRSYNTVPVSEIYHLGVLGYPALSSGKHYWEVDISRSDAWLLGLNDGKCAQPQLHSKEEMGIKKNLHSQIKQNVLFQPKCGYWVIGMKNPSVYKAFDECSITHNSSILVISLPDRPSRVGVFLDRKAGTLSFYDVSNCGALIYRFYDPAFPVEVYPYFNPMKCSEPMTICGPPS
B3: TRIM29, endogenous in mouse BMDMs (enzyme, UniProt Q8R2Q0 1-587)
chain: MEGADACRSNGASPEARDTRSPPGPSGSLENGTKADSKDTKTTNGHSGEVTEGKTLGSALKSGEGKSGLFSSNEWRRPIIQFVESVDDKGSSYFSMDSAEGRRSPYAGLQLGASKKPPVTFAEKGELRKSIFSEPRKPTVTIVEPGEVRRNSYPRADSSLLARAKSGSEEVLCDSCIGNKQKAVKSCLVCQASFCELHLKPHLEGAAFRDHQLLEPIRDFEARKCPLHGKTMELFCQTDQTCICYLCMFQEHKNHSTVTVEEAKAEKETELSLQKEQLQLKIIEIEDDVEKWQKEKDRIKSFTTNEKAILEQNFRDLVRELEKQKEEVRAALEQREQDAVDQVKVIVDALDERAKVLHEDKQTREQLHNISDSVLFLQEFGALMSNYSLPPPLPTYHVLLEGEGLGQSLGNCKDDLLNVCMRHVEKMCKADLSRNFIERNHMENGGDHRYMNSYTSSYGNEWSTPDTMKRYSMYLTPKGGGRTSYQPSSPSRLSKETNQKNFNNLYGTKGNYTSRVWEYTSTVQNSEDMPTVQGNSSFSLKGFPSLLRSQVPKAQPQTWKSGKQTLLSHYRPFYVNKGSGIGSNEAP
B4: UFL1, endogenous in mouse macrophages (enzyme, UniProt Q8CCJ3 1-793)
chain: MADAWEEIRRLAADFQRAQFAESTQRLSERNCIEIVNKLISQKQLEVVHTLDGKEYITPAQISKEMRDELHVRGGRVNIVDLQQVINVDLTHIESRVSDIIKSEKHVQMVLGQLIDENYLDQLSEEVNDKLQESGQVTVSELCKAYDLPGDFLTQALTQRLGRIINGHLDLDNRGVIFTEAFVARHKARIRGLFSAITRPTPVNSLVSKYGFQEQLLYSVLEDLVSTGRLRGTVVGGRQDKAVFVPDIYSRTQSTWVDSFFRQNGYLEFDALSRLGIPDAVNYIKKRYKNTQLLFLKATCVGQGLVDQVEASVEEAISSGTWVDISPLLPSSLSVEDAAMLLQQVMRPFGKLASAIVFSDTVVVSEKFITDCTGLFSERMHQKAEKEMKNNPVHLITEEDLKQISILESVNTSKKDKKDERRKKATEGSGSVRGGGGGNAREYKIKKTKKKGRKDEDSDDESQSSHGGKKKPDITFMFQDEIEDCLRKHIQDAPEEFISELAEYLIKPLNKMYLEVVRSVFMSSTSASGTGRKRTIKDLQEEVSNLYNNIRLFEKGMKYFADDTQTALTKHLLKTVCTDITNLMFNFLASDFLMAVEEPAAITSDIRKKILSKLTEETKVALTKLHNSLNEKSIEDFLSCLDSATEACDIMVKKGDKKRERQILFQHRQALCEQLKVTEDPALILHLTAVLLFQLSTHSMLHAPGRCVPQIIAFLHSKIPEDQHTLLVKYQGLVVKQLVSQNKKTGQGEDPSSDELDKEQHDVTNATRKELQELSLSIKDLVLKSRKSSVTEE

Columns and labels:
STING-Myc = STING-Myc (UniProt Q86WV6); assay: co-IP; 293T cells cotransfected with TRIM29, RNF5 or TRIM30a and STING with varying doses of UFL1; co-immunoprecipitation, immunoblot
[1] = biological target: T1, STING, endogenous in mouse macrophages (mouse (endogenous in peritoneal macrophages and BMDMs)); assay: co-IP; endogenous proteins in mouse PMs and BMDMs, unstimulated or infected with HSV-1 for the indicated times; immunoprecipitation, immunoblot

Row | Binder | binding (STING-Myc) | binding [1]
1 | B1 | binds | 
2 | B2 | binds | 
3 | B3 |  | binds
4 | B4 |  | binds
